1 sequence from PMC5996148 can be followed below.

The other results are listed elsewhere or left out.

Test systems include FAAH2 (human); FABP3 (human); FABP7 (human); FAH (human); FAIM (human); FAM102A (human); FAM106B (human); FAM108B1 (human); FAM119A (human); FAM120C (human).
What all share (assay): protein microarray (ProtoArray v5.0), streptavidin-Alexa Fluor 647
Common to all, as to conditions: 3'-biotin; 20 mM Tris (pH 7.5), 5 mM MgCl2, 100 mM KCl, 0.1% Tween-20, A/T-rich and random oligonucleotide blockers; temperature not stated; high values mean tight binding

Regarding “GGGAGGCTGAGGCAGG [G4-1 biotinylated (PQS2)]”, the binding signal with FAAH2 (human) was -0.286 z-score; with FABP3 (human), -0.352 z-score; in the assay with FABP7 (human), -0.328 z-score; with FAH (human), -0.338 z-score; in the assay on FAIM (human), -0.304 z-score; in the assay with FAM102A (human) it was -0.314 z-score. Further, the binding signal was -0.337 z-score in the assay with FAM106B (human), -0.284 z-score in the assay with FAM108B1 (human), -0.316 z-score in the assay with FAM119A (human) and -0.301 z-score in the assay on FAM120C (human).
